Patent US20090247466A1, “NEUROPROTECTIVE INTEGRIN-BINDING PEPTIDE AND ANGIOPOIETIN-1 TREATMENTS” (University of Louisville Research Foundation, priority 2008, published 2009)
Several values for one entry are separate records, joined by “and”; a condition that tells them apart may be missing. Identical values can stand only once. Not every detail of the peptide structures is certain; ends, links or a residue may be inferred. Ends that are not written are not given here.

Key:
[1] = system: monocytic THP-1 cells across human aortic endothelial cells; experiment: Transendothelial migration assay; assay type: cell-based
Method: Human aortic endothelial cells (Lonza, Wakersville, Md.) were plated on permeable filters in Transwell® culture plates (Costar, Cambridge, Mass.) at 4×10^4 cells per well. They were grown for 72-96 hours to reach confluency at 37° C. in Dulbecco's modified Eagle's medium Ham's F-12 (DMEM F-12; BioWhittaker, Walkersville, Md.) plus EGM-2 growth factor supplements (EGM-2 SingleQuots™ from Lonza Walkersville Inc, containing hydrocortisone, hEGF, FBS, VEGF, hFGF-B, R3-IGF-1, ascorbic acid, heparin and gentamicin/amphotericin-B) and 10-20% fetal calf serum. Afterwards, the inner chamber of the Transwell® system was loaded with 2×10^5 monocytic THP-1 cells (American Type Culture Collection, Manassas, Va.) and preincubated in medium with or without 15 ng/ml of TNF-α (PeproTech, Rocky Hill, N.J.) for 5 hr at 37° C. C16 peptide was added into the medium of the inner chamber at 25, 50, 100, 200, 400, 600 μM, and SP3 was added at 600 μM. Peptides were centrifuged to remove any precipitates before addition. The vehicle served as control. The monocytic THP-1 cells were allowed to transmigrate for 6 h at 37° C. and the number of THP-1 cells that crossed endothelial cell layer was counted. Values were derived from 3 wells per concentration and the experiment run in duplicate. To assess the functions of integrins, azide-free blocking antibodies against human αvβ3 (Cat# MAB1976Z, Chemicon; also known as LM609) and human α5 (Cat# MAB1956Z, Clone P1D6 Chemicon) integrin were added in a separate experiment without C16 peptide.
Human aortic ECs (BioWhittaker, Walkersville, Md.) were plated on permeable filters in Transwell culture plates (Costar, Cambridge, Mass.) at 4×10^4 cells per well. They were grown for 72-96 h to reach confluency at 37° C. in Dulbecco's modified Eagle's medium Ham's F-12 (DMEM F-12; BioWhittaker) plus EGM-2 SingleQuots™ supplement (BioWhittaker) which contains hydrocortisone, hEGF, FBS, VEGF, hFGF-B, R3-IGF-1, ascorbic acid, heparin, and gentamicin/amphotericin-B, and 10-20% fetal calf serum. Afterwards, the inner chamber of the Transwell system was loaded with 2×10^5 monocytic THP-1 cells (American Type Culture Collection, Manassas, Va.) and preincubated in medium with or without 15 ng/ml of TNF-α (PeproTech, Rocky Hill, N.J.) for 5 hr at 37° C. C16 peptide was added into the medium of the inner chamber at 25, 50, 100, 200, 400, 600 μM, and SP3 was added at 600 μM. Peptides were centrifuged to remove any precipitates before addition. The vehicle served as the control. THP-1 cells were allowed to transmigrate for 6 h at 37° C. and the number of THP-1 cells that crossed EC layer was counted. Values were derived from 3 wells per concentration and three independent experiments were performed. […]

[2] = system: C57BL/6 mice with spinal cord contusion at T9; experiment: Volume of tissue loss (laminin-positive heterodomain) after spinal cord contusion; assay type: in vivo; settings: 100 μg/day i.v. daily starting immediately after injury; 7 days after contusion
[3] = system: C57BL/6 mice with spinal cord contusion at T9; experiment: Overground locomotor function, Basso Mouse Scale (BMS), after spinal cord contusion; assay type: in vivo
[4] = 100 μg daily over 14 days starting 4 hours after injury, week 6
[5] = 100 μg/day i.v. daily for 7 days, 7 days following injury

KAFDITYVRLKF [C16, KAFDITYVRLKF (SEQ ID NO:2)]
monocyte transmigration reduced to ([1]; 600 μM, in the presence of 15 ng/ml TNFα): 21% and ~20% | transmigration reduced by ([1]; 600 μM, without TNF-α): 48% | monocyte transmigration reduced to ([1]; 600 μM, without TNFα): 52% | concentration at which the number of transmigrated cells was already reduced ([1]; ECs stimulated with TNF-α (15 ng/mL)): 67 µM | reduction of volume of the laminin-positive heterodomain compared to vehicle [2]: 43% | BMS score ([3]; 100 μg daily over 14 days starting 4 hours after injury, at 7 days): 3.9±0.5 | mice with a BMS score of 5 or above (weight-bearing) ([3]; 100 μg daily over 14 days starting 4 hours after injury, one week after contusion): 3 out of 9 | BMS score [3, 4]: 5.4±0.4 | mice with a BMS score of 5 or above (weight-bearing) [3, 4]: Seven out of nine | BMS score [3, 5]: 4.3±0.3 | mice with a BMS score of 5 or higher (weight-bearing) [3, 5]: Two out of the 8 | BMS score (9 point scale) ([3]; 100 μg/day i.v. for 7 days starting 4 hours after injury, behavioral analyses over 6 weeks): 5.5 | end-point BMS ([3]; C16 alone, previous study): 5.5 | BMS score ([3]; C16 over the first week (with vehicle or C16 during week 5), at 6 weeks): 5.8±0.6 | mice with a BMS score of 7 and above ([3]; last two weeks of testing (5 and 6 weeks after injury)): 11% | BMS score ([3]; single i.v. injection immediately after contusion, 7 days): 3.8±0.6
